Test results taken from US20130079287A1, “CAFFEOYLALPHANEOENDORPHIN PEPTIDE DERIVATIVE AND USE THEREOF AS ANTI-ITCHING AND ANTI-ATOPIC AGENTS” (priority 2011, published 2013).
At least one peptide structure holds a part that was inferred or is arguable (an end, a ring closure or a residue). Where a SMILES comes first, the peptide text is derived from it. Where no end group is shown, it is not given here. The star is where a group is joined. Caffeoyl = O=C(/C=C/c1ccc(O)c(O)c1)*

Legend:
[1] = test system: whole ear cells; experiment: Cytokine expression in the whole ear cells, real-time PCR; assay type: in vivo, Balb/c mice
[2] = Physical stability test under alternating temperature; assay type: physicochemical; conditions: for residual content: 10,000 ppm aqueous solution, alternating temperature, HPLC
Excerpt: The physical stability under the condition of severe alternating temperature is an essential factor in the terms of the product property to be exposed to various external atmospheres in the case of cosmetics. The caffeoylalphaneoendorphin peptide derivative prepared from Example 1 has an increased stability to oxidation rather than that of caffeic acid in an aqueous solution. In order to confirm the increased physical stability, it was stored under the condition of alternating temperature for certain period time, and then its degradation degree was measured.
Firstly, 10,000 ppm concentration of caffeoylalphaneoendorphin peptide derivative aqueous solution was placed under the conditions of alternating temperatures, that is, low temperature (4° C.), room temperature (20° C.), and high temperature (40° C.) that were repeated at an interval of 8 hours, and then the physical stability was measured by the naked eye and HPLC Analysis for 30 days, 60 days, and 90 days.

[3] = test system: IgE; experiment: Atopic dermatitis animal model, total IgE in serum by ELISA; assay type: in vivo, Balb/c mice; conditions: 400 ug and 800 ug per each ear, compared with control
[4] = test system: Balb/c mice induced with atopic dermatitis (DNCB and dust mites); experiment: Atopic dermatitis animal model, apparent change of ear; assay type: in vivo; conditions: applied to each ear every day for 3 weeks, compared with control (70% EtOH)
[5] = test system: B cell; experiment: IgE secreted from lymphnode B cell stimulated with IL-4 and LPS, ELISA; assay type: in vivo, Balb/c mice; conditions: B cell from lymphnode of treated mice
[6] = test system: Balb/c mice induced with atopic dermatitis (DNCB and dust mites); experiment: Atopic dermatitis animal model, number of scratching; assay type: in vivo
[7] = test system: immune cells in the ear; experiment: Atopic dermatitis animal model, H&E staining of ear; assay type: in vivo, Balb/c mice; conditions: 800 ug/each ear, ear cross-sections, compared with control
[8] = test system: lymphnode CD4+ T cell; experiment: Cytokine expression in lymphnode CD4+ T cell, real-time PCR; assay type: in vivo, Balb/c mice; conditions: mRNA level

For CC(C)C[C@H](NC(=O)[C@H](Cc1ccccc1)NC(=O)CNC(=O)CNC(=O)[C@H](Cc1ccc(O)cc1)NC(=O)/C=C/c1ccc(O)c(O)c1)C(=O)N[C@@H](CCCNC(=N)N)C(=O)N[C@@H](CCCCN)C(=O)N[C@@H](Cc1ccc(O)cc1)C(=O)N1CCC[C@H]1C(=O)N[C@@H](CCCCN)C(=O)O [Caffeoyl (R1, R2, and R5 are hydrogen, and R3 and R4 are hydroxy)-alphaneoendorphin Peptide Derivative] (Caffeoyl-YGGFLRKYPK-OH), the “expressions of IL-13, IL-17, IFN-γ, and IL-10 with increasing the treatment concentration” value ([1]; 800 versus 400 ug/each ear) was “decreased even more”, the “expression of IFN-γ” value ([1]; mRNA level) was “significantly decreased” and the “expression of IL-4” value ([1]; mRNA level) was “significantly decreased”. For the same compound, the “expression of IL-5” value ([1]; mRNA level) was “significantly decreased”, the “expression of IL-10” value ([1]; mRNA level) was “significantly decreased” and the “expression of IL-13” value ([1]; mRNA level) was “significantly decreased”. The “expression of IL-17” value ([1]; mRNA level) was “significantly decreased”, the “expression of IL-31” value ([1]; mRNA level) was “significantly decreased” and the “expression of TNF-α” value ([1]; mRNA level) was “significantly decreased”. For the same compound, the residual content ([2]; 0 day) was 99±2%, the residual content ([2]; 30 days) was 96±4% and the residual content ([2]; 60 days) was 90±8%. For the same compound, the residual content ([2]; 90 days) was 81±19%, the “acidification of aqueous solution (change of transparency)” value ([2]; aqueous solution, alternating temperature 4/20/40° C. at 8 h interval, up to 60 days, naked eye) was “no acidification” and the “total IgE concentration in serum” value [3] was “decreased IgE concentration in serum”. The “all visible symptoms of ear” value [4] was “considerably moderated”, the “thickness and dead skin cell of ear, degree of erythema, degree of hardening” value [4] was “considerably decreased” and the “IgE in culture medium secreted from the B cell” value [5] was “decreased”. For the same compound, the “Number of Scratching /Min” value ([6]; 400 ug/each ear) was 2.455 min⁻¹, the “number of scratching” value ([6]; 400 ug/each ear, total per group, recorded 11 (column headed Hour)) was 27 and the number of scratching ([6]; 400 ug, control averagely 10 times per one minute) was 2.5 times/minute. The “Number of Scratching /Min” value ([6]; 800 ug/each ear) was 1.273 min⁻¹, the “number of scratching” value ([6]; 800 ug/each ear, total per group, recorded 11 (column headed Hour)) was 14 and the number of scratching ([6]; 800 ug, control averagely 10 times per one minute) was 1.3 times/minute. For the same compound, the “number of scratching in the treatment group” value ([6]; compared with the control group) was “significantly decreased”, the “number of the immune cells stained with dark blue or purple color” value [7] was “significantly decreased” and the “expression amount of IFN-γ” value [8] was “didn't changed very much”. For the same compound, the “expression amount of IL-4” value [8] was “decreased”, the “expression amount of IL-5” value [8] was “decreased” and the “expression amount of IL-10” value [8] was “didn't changed very much”. The “expression amount of IL-13” value [8] was “significantly decreased”.

In the case of YGGFLRKYPK [alphaneoendorphin], the residual content ([2]; 90 days) is reported as 46±23%.
